Reference: the supplement of paper PMC6078165
The reference is the same well before dosing, and untreated signal decays as well.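 Fibroblast labels name human fibroblasts: mostly primary ones from tissues such as uterus (C12385, HUF), lung (H6013), bone (Hs27A), adrenal (HADF) and skin (WS1), plus mammary HMF and breast cancer-associated Hs343T. The cancer cells are basal-like or mesenchymal-like triple-negative breast cancer lines. The paper calls a changed response a hit when it shifts by more than 3x the replicate standard deviation. The tissue of the other fibroblasts is not given here.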

Tested on: MDAMB436
Test: relative JC-1 red fluorescence (viability) vs pre-drug, coculture with fibroblast (fraction); higher = more viable cancer cells
Method: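 JC-1 labelled TNBC cells cocultured 1:1 (1,500 cells each) with CellTrace Violet stained primary or stromal fibroblasts in 384-well plates in FluoroBrite medium, treated with one of 42 anticancer drugs at 0.1, 1, 10 or 100 uM. JC-1 red fluorescence (mitochondrial integrity in cancer cells only) was read by plate reader every 8 h for 72 h. Values are normalised to each well's pre-drug value. The stock of one drug was tenfold lower, so its dose labels may be too high.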

C[C@]12CC[C@@H]3c4ccc(O)cc4C[C@@H](CCCCCCCCC[S+]([O-])CCCC(F)(F)C(F)(F)F)[C@H]3[C@@H]1CC[C@@H]2O (stereo partly drawn) [Fulvestrant]
relative JC-1 red fluorescence
Conditions	8 h	16 h	24 h	32 h	40 h	48 h	56 h	64 h	72 h
0.1 µM, coculture fibroblast: C12385	0.81	0.711	0.649	0.574	0.519	0.487	0.467	0.447	0.439
0.1 µM, coculture fibroblast: H6013	0.807	0.724	0.693	0.674	0.655	0.658	0.631	0.61	0.565
0.1 µM, coculture fibroblast: H6019	0.7474	0.621	0.5993	0.529	0.482	0.458	0.423	0.396	0.372
0.1 µM, coculture fibroblast: H6076	0.763	0.657	0.619	0.575	0.55	0.519	0.528	0.519	0.5
0.1 µM, coculture fibroblast: H6231	0.75	0.65	0.635	0.5816	0.56	0.527	0.511	0.48	0.454
0.1 µM, coculture fibroblast: HADF	0.8061	0.71707	0.677	0.638	0.601	0.593	0.548	0.524	0.484
0.1 µM, coculture fibroblast: HCFa	0.835	0.744	0.691	0.647	0.605	0.599	0.539	0.51328	0.4542
0.1 µM, coculture fibroblast: HCPF	0.7831	0.706	0.673	0.626	0.599	0.567	0.535	0.521	0.496
0.1 µM, coculture fibroblast: HHSteC	0.854	0.82	0.775	0.75	0.73	0.74	0.672	0.647	0.581
0.1 µM, coculture fibroblast: HMF	0.84	0.743	0.684	0.646	0.615	0.586	0.567	0.541	0.523
0.1 µM, coculture fibroblast: HPFa	0.846	0.773	0.721	0.664	0.639	0.63	0.549	0.512	0.44
0.1 µM, coculture fibroblast: HUF	0.8245	0.7157	0.6552	0.57426	0.5241	0.4859	0.4552	0.433	0.42017
0.1 µM, coculture fibroblast: Hs5	0.842	0.787	0.752	0.699	0.676	0.629	0.627	0.588	0.574
0.1 µM, coculture fibroblast: Hs27A	0.7516	0.681	0.664	0.637	0.603	0.645	0.549	0.522	0.448
0.1 µM, coculture fibroblast: Hs343T	0.8076	0.71462	0.639	0.59	0.537	0.495	0.46	0.439	0.418
0.1 µM, coculture fibroblast: WS1	0.8	0.708	0.658	0.578	0.537	0.517	0.491	0.459	0.45
1 µM, coculture fibroblast: C12385	0.7759	0.7186	0.7084	0.638	0.604	0.584	0.557	0.54	0.528
1 µM, coculture fibroblast: H6013	0.822	0.821	0.822	0.827	0.836	0.878	0.843	0.825	0.771
1 µM, coculture fibroblast: H6019	0.753	0.727	0.742	0.693	0.672	0.659	0.624	0.59	0.5538
1 µM, coculture fibroblast: H6076	0.774	0.733	0.735	0.687	0.663	0.638	0.642	0.64	0.622
1 µM, coculture fibroblast: H6231	0.829	0.771	0.883	0.828	0.834	0.827	0.833	0.832	0.812
1 µM, coculture fibroblast: HADF	0.83	0.808	0.799	0.786	0.791	0.835	0.779	0.794	0.755
1 µM, coculture fibroblast: HCFa	0.773	0.756	0.739	0.698	0.681	0.697	0.631	0.611	0.551
1 µM, coculture fibroblast: HCPF	0.797	0.777	0.783	0.7302	0.705	0.675	0.655	0.638	0.605
1 µM, coculture fibroblast: HHSteC	0.817	0.823	0.824	0.79	0.784	0.791	0.72	0.696	0.629
1 µM, coculture fibroblast: HMF	0.799	0.723	0.711	0.6616	0.629	0.5852	0.5714	0.5556	0.5338
1 µM, coculture fibroblast: HPFa	0.8593	0.813	0.791	0.749	0.729	0.737	0.632	0.593	0.504
1 µM, coculture fibroblast: HUF	0.8479	0.7622	0.7513	0.684	0.6394	0.622	0.5926	0.573	0.555
1 µM, coculture fibroblast: Hs5	0.806	0.779	0.774	0.721	0.701	0.655	0.653	0.624	0.589
1 µM, coculture fibroblast: Hs27A	0.819	0.76	0.76	0.743	0.717	0.778	0.669	0.654	0.569
1 µM, coculture fibroblast: Hs343T	0.783	0.693	0.678	0.63	0.61	0.574	0.554	0.534	0.52
1 µM, coculture fibroblast: WS1	0.7398	0.713	0.705	0.6303	0.595	0.57	0.549	0.531	0.523
